In article doi:10.1101/2025.02.07.636106:
No constants are given. Whether binding was seen depends on the method and setting. In cells and extracts the contact can be indirect. Here binding means that the protein was enriched with, or labelled near, the bait; the list need not be complete.

Protein sequences, listed by entry. Tags and fused reporters are not part of them. Residues count along the entry.
UniProt Q9P0T7, residues 21-183: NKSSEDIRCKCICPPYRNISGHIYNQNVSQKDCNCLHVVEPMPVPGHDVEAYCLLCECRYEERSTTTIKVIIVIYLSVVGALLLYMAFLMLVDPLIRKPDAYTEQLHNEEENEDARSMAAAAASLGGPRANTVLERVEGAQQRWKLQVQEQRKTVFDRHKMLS
UniProt P51793: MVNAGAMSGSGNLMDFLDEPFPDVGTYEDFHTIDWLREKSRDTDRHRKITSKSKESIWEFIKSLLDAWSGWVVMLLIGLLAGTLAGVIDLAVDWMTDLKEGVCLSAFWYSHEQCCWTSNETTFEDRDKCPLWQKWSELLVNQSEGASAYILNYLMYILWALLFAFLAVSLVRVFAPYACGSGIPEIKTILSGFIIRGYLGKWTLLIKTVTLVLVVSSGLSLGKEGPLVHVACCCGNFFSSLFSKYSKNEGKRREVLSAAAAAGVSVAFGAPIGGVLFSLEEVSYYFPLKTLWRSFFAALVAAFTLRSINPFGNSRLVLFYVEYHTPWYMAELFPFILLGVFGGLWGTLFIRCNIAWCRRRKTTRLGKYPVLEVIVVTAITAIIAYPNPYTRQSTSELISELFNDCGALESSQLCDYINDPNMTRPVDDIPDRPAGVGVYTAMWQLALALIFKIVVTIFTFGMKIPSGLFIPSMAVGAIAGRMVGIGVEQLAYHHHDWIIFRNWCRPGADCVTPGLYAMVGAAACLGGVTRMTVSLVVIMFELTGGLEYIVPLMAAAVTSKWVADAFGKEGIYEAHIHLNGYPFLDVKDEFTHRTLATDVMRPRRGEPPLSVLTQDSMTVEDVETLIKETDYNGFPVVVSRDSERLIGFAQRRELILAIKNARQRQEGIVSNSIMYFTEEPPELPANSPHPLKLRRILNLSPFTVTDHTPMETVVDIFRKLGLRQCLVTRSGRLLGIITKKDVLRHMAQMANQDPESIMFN

Molecular target: TMEM9-HA (lentiviral, iNeurons) (human) (UniProt Q9P0T7)
Experiment: affinity purification with mass spectrometry; anti-HA immunoprecipitations from TMEM9-/- iNeurons (day 21) with or without lentiviral expression of TMEM9-HA, four biological replicates; 0.5% DDM extraction; TMT-MS

binding: binds
Substance: CLCN4 (from UniProt P51793 1-760)
